Paper PMC12741742
These are yes or no findings as the source states them, for the method shown.

Biological target: brazzein (recombinant, produced in Trichoderma reesei, with N-terminal pyroglutamic acid) (Pentadiplandra brazzeana)
Assay: dynamic light scattering; brazzein in water, 2 mg/mL, 20 °C at the start of the thermal ramp, 173° backscattering; sample stored 24 months at 4-8 °C before analysis; both purified

- binding: no binding (tested: 2 mg/mL)
B1: brazzein (recombinant, produced in Trichoderma reesei, with N-terminal pyroglutamic acid) (protein)
chain: QDKCKKVYENYPVSKCQLANQCNYDCKLDKHARSGECFYDEKRNLQCICDYCEY
modifications: N-terminal pyroglutamic acid (pQ1); four disulfide bonds
